The list shows a part of the results. Many values rest on one well or one pass, so single values are uncertain.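 Imaging used 1,536-well plates; nuclei positive for cleaved PARP by antibody were divided by total DNA-stained nuclei to yield the apoptosis fraction. Doses for screening kept most cells viable, and cell lines differ markedly in resting and induced cleaved-PARP levels.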

The text below walks through data of the supplement of paper PMC4604168 (melanoma cell lines).

One assay has as its system RPMI7951. The experiment in a line: cleaved PARP positive nuclei fraction relative to DMSO control; melanoma cells; higher = more apoptosis. Particulars: library dose: low library concentration; 72 h.
Consider `CN(c1ncccc1CNc1nc(Nc2ccc3c(c2)CC(=O)N3)ncc1C(F)(F)F)S(C)(=O)=O` + Oc1nc(-c2ccc(C(F)(F)F)cc2)nc2c1CSCC2 [XAV939] (first compound 0.08 µM, partner dose 2 µM), for which the “cleaved PARP positive nuclei fraction” value amounted to 39.6%.
The same measure, in the same setting: the figure for `Cn1cnc2c(F)c(Nc3ccc(Br)cc3Cl)c(C(=O)NOCCO)cc21` [selumetinib] + COc1ccc(COc2ccc(Cc3cnc(N)nc3N)cc2OC)cc1 [GW2580] (first compound 0.015 µM, partner dose 1 µM) is 53.8%.
On the same count and under the same terms, next, `NC(=O)c1ccc(N(C(N)=O)c2c(F)cccc2F)nc1-c1ccc(F)cc1F` + O=C(O)c1ccc(-c2c[nH]c3ncc(-c4ccccc4)cc23)cc1C1CCCC1 [GSK650394] (first compound 0.4 µM, partner dose 0.16 µM): 163%.
The same measure, in the same setting: the figure for `COc1ccc(C2=N[C@@H](c3ccc(Cl)cc3)[C@@H](c3ccc(Cl)cc3)N2C(=O)N2CCNC(=O)C2)c(OC(C)C)c1` [Nutlin-3] + NC(=O)Nc1cc(-c2cccc(F)c2)sc1C(=O)N[C@H]1CCCNC1 [AZD7762] (first compound 0.1 µM, partner dose 0.02 µM) is 99.4%; for `CS(=O)(=O)c1ccc(C(=O)Nc2ccc(Cl)c(-c3ccccn3)c2)c(Cl)c1` [vismodegib] + Cc1ccc(NC(=O)c2cccc(N(C)C)c2)cc1NC(=O)c1ccc(O)cc1 [ZM336372] (first compound 1 µM, partner dose 2 µM) it is 118%; for `CCCCCCCCc1ccc(CCC(N)(CO)CO)cc1` [fingolimod] + Cn1cc(/C=C2\C(=O)Nc3cccnc32)c2ccccc21 [GW441756] (first compound 2 µM, partner dose 0.4 µM) it is 77%.
`NC1(c2ccc(-c3nc4ccn5c(=O)[nH]nc5c4cc3-c3ccccc3)cc2)CCC1` + C=CCn1c(=O)c2cnc(Nc3ccc(N4CCN(C)CC4)cc3)nc2n1-c1cccc(C(C)(C)O)n1 [MK1775] (first compound 0.4 µM, partner dose 0.02 µM): the “cleaved PARP positive nuclei fraction” value was 88.1%.
The same measure, in the same setting: next, `C[C@]1(O)C[C@@H](c2nc(-c3ccc4ccc(-c5ccccc5)nc4c3)c3c(N)nccn32)C1` + O=C(Nc1cccc(Cl)c1)Nc1ncc(CCNc2ncnc3ccsc23)s1 [SNS314] (first compound 0.4 µM, partner dose 0.0008 µM): 94.9%; `CC1(C)CCC(c2ccc(Cl)cc2)=C(CN2CCN(c3ccc(C(=O)NS(=O)(=O)c4ccc(N[C@H](CCN5CCOCC5)CSc5ccccc5)c(S(=O)(=O)C(F)(F)F)c4)cc3)CC2)C1` + O=C1NC(=O)/C(=C/c2ccc(-c3ccc(F)cc3O)o2)S1 [AS252424] (first compound 0.4 µM, partner dose 1 µM): 254%.
The same measure, in the same setting: the figure for `CC1(C)CCC(c2ccc(Cl)cc2)=C(CN2CCN(c3ccc(C(=O)NS(=O)(=O)c4ccc(N[C@H](CCN5CCOCC5)CSc5ccccc5)c(S(=O)(=O)C(F)(F)F)c4)cc3)CC2)C1` + c1cc(-c2cnn3cc(-c4ccc(OCCN5CCCCC5)cc4)cnc23)ccn1 [Dorsomorphin] (first compound 0.4 µM, partner dose 0.4 µM) is 76.2%; for `CN(c1ncccc1CNc1nc(Nc2ccc3c(c2)CC(=O)N3)ncc1C(F)(F)F)S(C)(=O)=O` + CCN(CC)CCCCNc1ncc2cc(-c3cc(OC)cc(OC)c3)c(NC(=O)NC(C)(C)C)nc2n1 [PD173074] (first compound 0.08 µM, partner dose 0.1 µM) it is 205%.

The next assay relates to RVH-421. The description is as above. Conditions: library dose: low library concentration; 72 h.
For `CC1(C)CCC(c2ccc(Cl)cc2)=C(CN2CCN(c3ccc(C(=O)NS(=O)(=O)c4ccc(N[C@H](CCN5CCOCC5)CSc5ccccc5)c(S(=O)(=O)C(F)(F)F)c4)cc3)CC2)C1` + Cc1cc([N+](=O)[O-])ccc1NS(=O)(=O)c1cc(Cl)ccc1Cl [FH535] (first compound 0.4 µM, partner dose 1 µM), the “cleaved PARP positive nuclei fraction” value stood at 147%.
In the case of `NC1(c2ccc(-c3nc4ccn5c(=O)[nH]nc5c4cc3-c3ccccc3)cc2)CCC1` + CC(C)(C)c1cnc(CSc2cnc(NC(=O)C3CCNCC3)s2)o1 [SNS-032] (first compound 0.4 µM, partner dose 0.01 µM), the “cleaved PARP positive nuclei fraction” value came to 130%.
In the case of `CN(c1ncccc1CNc1nc(Nc2ccc3c(c2)CC(=O)N3)ncc1C(F)(F)F)S(C)(=O)=O` + O=C(O)C(=O)Nc1sc2c(c1C(=O)O)CCNC2 [TCS401] (first compound 0.08 µM, partner dose 1.66667 µM), the “cleaved PARP positive nuclei fraction” value was found to be 34.8%.
As to `NC1(c2ccc(-c3nc4ccn5c(=O)[nH]nc5c4cc3-c3ccccc3)cc2)CCC1` + COc1cc2c(Oc3ccc4[nH]c(C)cc4c3F)ncnc2cc1OCCCN1CCCC1 [cediranib] (first compound 0.4 µM, partner dose 0.4 µM), the “cleaved PARP positive nuclei fraction” value stood at 128%.
As for `CC1(C)CCC(c2ccc(Cl)cc2)=C(CN2CCN(c3ccc(C(=O)NS(=O)(=O)c4ccc(N[C@H](CCN5CCOCC5)CSc5ccccc5)c(S(=O)(=O)C(F)(F)F)c4)cc3)CC2)C1` + C=CCn1c(=O)c2cnc(Nc3ccc(N4CCN(C)CC4)cc3)nc2n1-c1cccc(C(C)(C)O)n1 [MK1775] (first compound 0.4 µM, partner dose 0.02 µM), the “cleaved PARP positive nuclei fraction” value was determined as 126%.
On the same count and under the same terms, next, `NC1(c2ccc(-c3nc4ccn5c(=O)[nH]nc5c4cc3-c3ccccc3)cc2)CCC1` + COc1ccc(-c2ccc3c(N4CCOCC4)nc(N4C[C@@H](C)O[C@@H](C)C4)nc3n2)cc1CO [KU0063794] (first compound 0.4 µM, partner dose 0.02 µM): 204%; `CS(=O)(=O)c1ccc(C(=O)Nc2ccc(Cl)c(-c3ccccn3)c2)c(Cl)c1` [vismodegib] + COC(=O)c1sccc1S(=O)(=O)Nc1ccc(Nc2ccccc2)cc1OC [GSK0660] (first compound 1 µM, partner dose 1 µM): 35.2%.
For `NC(=O)c1ccc(N(C(N)=O)c2c(F)cccc2F)nc1-c1ccc(F)cc1F` + O=C(CCCCCCC(=O)Nc1ccccc1)NO [vorinostat] (first compound 0.4 µM, partner dose 0.08 µM), the “cleaved PARP positive nuclei fraction” value turned out to be 39.3%.
On the same count and under the same terms, the figure for `Cn1sc(=O)n(Cc2ccccc2)c1=O` + O=c1cc(-c2cccc3c2Sc2ccccc2S3)oc(N2CCOCC2)c1 [KU55933] (first compound 0.4 µM, partner dose 1 µM) is 98.7%.
Same read-out and setting: the figure for `CCCCCCCCc1ccc(CCC(N)(CO)CO)cc1` [fingolimod] + COc1cc2ncnc(Nc3ccc(Oc4ccccc4)cc3)c2cc1OC [SrcI1] (first compound 2 µM, partner dose 2 µM) is 113%; for `NC1(c2ccc(-c3nc4ccn5c(=O)[nH]nc5c4cc3-c3ccccc3)cc2)CCC1` + Cc1ccc(NC(=O)c2cccc(N(C)C)c2)cc1NC(=O)c1ccc(O)cc1 [ZM336372] (first compound 0.4 µM, partner dose 2 µM) it is 93.5%; for `COc1ccc(C2=N[C@@H](c3ccc(Cl)cc3)[C@@H](c3ccc(Cl)cc3)N2C(=O)N2CCNC(=O)C2)c(OC(C)C)c1` [Nutlin-3] + C[C@@H]1CCN(C(=O)CC#N)C[C@@H]1N(C)c1ncnc2[nH]ccc12 [CP690550] (first compound 0.1 µM, partner dose 1 µM) it is 51.9%.
The same measure, in the same setting: next, `CS(=O)(=O)c1ccc(C(=O)Nc2ccc(Cl)c(-c3ccccn3)c2)c(Cl)c1` [vismodegib] + CC(C)(C)c1cnc(CSc2cnc(NC(=O)C3CCNCC3)s2)o1 [SNS-032] (first compound 1 µM, partner dose 0.01 µM): 57.8%.
`NC1(c2ccc(-c3nc4ccn5c(=O)[nH]nc5c4cc3-c3ccccc3)cc2)CCC1` + Cn1cc(/C=C2\C(=O)Nc3cccnc32)c2ccccc21 [GW441756] (first compound 0.4 µM, partner dose 0.4 µM): the “cleaved PARP positive nuclei fraction” value worked out at 101%.
The same measure, in the same setting: next, `Cn1cnc2c(F)c(Nc3ccc(Br)cc3Cl)c(C(=O)NOCCO)cc21` [selumetinib] + O=C(Nc1cccc(Cl)c1)Nc1ncc(CCNc2ncnc3ccsc23)s1 [SNS314] (first compound 0.015 µM, partner dose 0.0008 µM): 160%; `CC1(C)CCC(c2ccc(Cl)cc2)=C(CN2CCN(c3ccc(C(=O)NS(=O)(=O)c4ccc(N[C@H](CCN5CCOCC5)CSc5ccccc5)c(S(=O)(=O)C(F)(F)F)c4)cc3)CC2)C1` + CCN(CC)CCCCNc1ncc2cc(-c3cc(OC)cc(OC)c3)c(NC(=O)NC(C)(C)C)nc2n1 [PD173074] (first compound 0.4 µM, partner dose 0.1 µM): 259%; `C[C@]1(O)C[C@@H](c2nc(-c3ccc4ccc(-c5ccccc5)nc4c3)c3c(N)nccn32)C1` + COc1cc2ncnc(Nc3ccc(Oc4ccccc4)cc3)c2cc1OC [SrcI1] (first compound 0.4 µM, partner dose 2 µM): 218%.
On the same count and under the same terms, next, `CC1(C)CCC(c2ccc(Cl)cc2)=C(CN2CCN(c3ccc(C(=O)NS(=O)(=O)c4ccc(N[C@H](CCN5CCOCC5)CSc5ccccc5)c(S(=O)(=O)C(F)(F)F)c4)cc3)CC2)C1` + CCc1ccc(CCOc2ccc(CC3SC(=O)NC3=O)cc2)nc1 [pioglitazone] (first compound 0.4 µM, partner dose 2 µM): 212%.
Same read-out and setting: next, `C[C@@H](N)c1ccc(C(=O)Nc2ccnc3[nH]ccc23)cc1` + CCN(CC)CCCCNc1ncc2cc(-c3cc(OC)cc(OC)c3)c(NC(=O)NC(C)(C)C)nc2n1 [PD173074] (first compound 0.4 µM, partner dose 0.1 µM): 63.6%.
